Results on 2 molecules are retold here after article PMC10556106.

These are yes or no findings as the source states them, for the method shown. Binding seen in cells or lysates may run through a third protein. A result given as binding can be weak or reduced; the word gives no strength. Tags and fused reporters may be left off the sequences shown.

This test concerns the target 3XFLAG-Arrow (Drosophila Arrow, ortholog of the Wnt receptor LRP6) (Drosophila). Kind of test: co-IP; HEK293T cells transfected with V5-tagged Usp46, Uaf1 and Wdr20 and FLAG-Arrow or empty vector; lysed after 48 h in NDLB (50 mM Tris pH 7.5, 300 mM NaCl, 1% Triton X-100, 5 mM EDTA, 0.2 g/L sodium azide); FLAG-Arrow precipitated with FLAG M2 affinity agarose, washed five times in NDLB; V5 immunoblot. A general note: Immunoblotting shows a protein as a band on a membrane.

B1: V5-tagged Drosophila Usp46 (Usp12-46) (enzyme, UniProt Q9VCT9 1-424)
chain: MGANVSQLEREIGSDLFPPNEHYFGLVNFGNTCYSNSVLQALYFCKPFREKVLEYKAKNKRPKETLLSCLADLFYSIATQKKKVGSIAPKKFITRLRKEKEEFDNYMQQDAHEFLNFLINHINEIILAERNAGPSNGNPKATNQGGSTSAMASSIASKSSSTSNSNSNSNSTTNSNGNSSNSTGSLNANTSVLDASGSLTATTTPIISGNGTGTNGANSEPTWVHEIFQGILTSETRCLNCETVSSKDENFFDLQVDVDQNTSITHCLRCFSNTETLCSDNKFKCDNCCSYQEAQKRMRVKKLPMILALHLKRFKYMEQFNRHIKVSHRVVFPLELRLFNTSDDAVNPDRLYDLTAVVIHCGSGPNRGHYISIVKSHGLWLLFDDDMVDKIEASTIEDFYGLTSDIHKSSETGYILFYQSRDCA
With B1, the binding result was “binds”.

B2: V5-tagged Drosophila Uaf1 (protein, UniProt Q1LZ08 1-668)
chain: MLTHKTCQARKKMQVSFVIRDAEEKQHRNGVNALQLDANNGKLYSAGRDAIIRVWNTRTDSSEKYIQSMEHHNDWVNDIVLCCNGRNLISASCDTTVKVWNAQKGFCMSTLRTHRDYVQALAYAKDREQVASAGLDKAIFLWDVNTLTALTASNNTVTTSSLTGSKDSIYSLAMNPSGTVIVSGSTENILRIWDPRTCMRRMKLRGHTENVRCLVVSPDGNQVVSGSSDGTIKVWNLGQQRCVQTIHVHKEGVWSLLMSENFQYIISGSRDRNIIVTEMRNPSNKTLVCEEQAPVLSLGYNIDKTGVWATTWNSDIRCWKLPMYDRCTLNSSGGMDAQWTQGGTEVACIKGGAAIKECAVLNDKRYIITKDSQDQVVVYDVLRVVKKEQLGAVDFEAEVKKRNKQVYIPNWFTVDLKTGMPTIVLGQEEVDCFSAWVSIEAGLPECVDPTTEIKINYGKLLLEALLEYWTPPHSIPPNEMEPDMHGNGYFQVPKHTPVIFSEVGGRTVCRLLVRDAAGDSESTLLHETAPQWVTDVVIEKNIPKFLKIPFFLQPHPQMTKPERTKKDRLVANEFIQCRKVCEHVLEKVLNAETTPSGGNANNSLQNSQSDANSEGSQLPAEERIELWCNDVVVDPNMDLRTVRHFIWKQSTDLTFQYKTKQNFNYDGK
Turning to B2, the binding result was “binds”.
